The campaign covered roughly 53,000 sequences. About 3,700 (7%) were called active.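 How the source made its calls: active means gene knockdowns whose robust z-score for IL-1 alpha signal is at least 2 or at most -2, so actives lie on both sides; inactive means the rest.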 Some of the results follow.
Test: Components of the Cytosolic LPS Sensing Pathway: Gene Identification via Genome-wide siRNA Screen;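 further: robust z of the log signal after scaling to non-targeting control siRNA wells of the plate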
Conditions: RAW264.7 macrophages, IL-1a HTRF, actives lie on both sides, screened at 100 nM (by protocol), cells primed 5 h with Pam3CSK4 first
Procedure, shortened: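 Three distinct siRNAs per gene were tested singly at 100 nM in RAW264.7 macrophages. Following Pam3CSK4 priming and 24 hour LipidA transfection, IL-1a secretion was read by HTRF.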
In the case of GGACAUGGCUUUAUAACCUTT against Dcdc5, the z-score is reported as inactive: 0.256. In the case of CCACGCUCUCAAGGUAUAGTT against Cyp2d22, the z-score is reported as active: -2.81. With GGCAUUCAUGACAAUGGCUTT against Rab1b the z-score was inactive: -1.89. In the case of CCAUGGACCAAGAUCCAGATT against Rrp12, the z-score is reported as inactive: 1.06. For GCUCGACCAAAAAACAACCTT against Emilin2, the z-score was inactive: 0.831. With GCUCAAAGGACCUCUGAGCTT against Slc29a2 the z-score was inactive: -1.28. In the case of CGAGUGUAAUGUGGUGGAATT against Npm3, the z-score is reported as inactive: 0.211. In the case of “GGUACGAAGGAAAAUUUACTT against 2810407A14Rik”, the z-score is reported as active: 2.72. With “GGACAACUCAAUUCUAAAATT against 4921522P10Rik” the z-score was inactive: -1.22. In the case of GCCCAACCAGUUUGAAUCUTT against Ubqln4, the z-score is reported as inactive: 1.25. In the case of GGUCUUAAGUUCAGAACCCTT against Natd1, the z-score is reported as inactive: -0.112. In the case of CGAAGGAUUCUUUUGUACUTT against Mib1, the z-score is reported as inactive: 1.18. In the case of GCUUGAUGGACAGUGACGATT against Dhrs3, the z-score is reported as inactive: -1.14. In the case of GGAACUGCAUCUGCACUAATT against Olfr683, the z-score is reported as inactive: 1.53. With GGAGACAUGAUUAAAGCUATT against Ubxn10 the z-score was inactive: -1.31. For GGAUCUCAUACAGAAUCCGTT against Haus4, the z-score was inactive: 0.216. For GGUGAUAACUCCGGGCCAATT against Fam3b, the z-score was active: 2.32. In the case of GGGCUGGAGUCUGAUACAUTT against Rbm5, the z-score is reported as active: 3.39. In the case of GGUCACUAGUGACAAAUGUTT against Fmo4, the z-score is reported as inactive: -0.768. In the case of CCCACUUUCUUUGAUAACUTT against Bcl2l11, the z-score is reported as inactive: 0.585. For GGCAGAUCUAGGAUAGAAGTT against Fbxo44, the z-score was inactive: -0.339. In the case of AAUAACAGGCCGGUCGAGATT against Fbrsl1, the z-score is reported as inactive: 0.615. In the case of GGUCGUAAAAAUUGAAAUCTT against Lhcgr, the z-score is reported as inactive: 0.169. In the case of GGCCAAGAUGACCAUCUCUTT against Cspg4, the z-score is reported as inactive: 0.973. For GGUUCAAGAAGUUUUGCUCTT against Tnfrsf9, the z-score was inactive: 0.44. With GCACUGAUGUUAUCCGAAGTT against Ngrn the z-score was inactive: -0.0153. With CCCACAGUAAAUUCAACGGTT against Gm5069 the z-score was inactive: 0.00754. With CCAAGUAAGGACUAUAGAGTT against Gpatch2 the z-score was inactive: -1.02. For GCAUCGAAGAGUUCAGAAUTT against Gm5136, the z-score was inactive: -0.161. In the case of GGUGGAGAAGGCAUGAAGATT against Amn, the z-score is reported as inactive: 0.329. For GGGUUUAUAAUUGGGAUGUTT against Vbp1, the z-score was inactive: 0.478. For GCACUGCAUAUUCCGCACUTT against Nubp2, the z-score was inactive: 1.4. In the case of CCAGCUUGUUACUAAGUAATT against Mgat3, the z-score is reported as inactive: -0.227. With GUACUUCACACCAGUUACATT against Olfr308 the z-score was inactive: 0.824. With CGAGGAAAAUUCCCGUCCCTT against Pno1 the z-score was inactive: 0.474. In the case of GCACUGUGAAUUUGUCAUUTT against Umps, the z-score is reported as inactive: 1.22. In the case of GGGUCAUCCAAAUGGUUUGTT against Grm6, the z-score is reported as inactive: 0.323. For CCGUUCACAAGAAUUACACTT against Grb2, the z-score was inactive: -0.665. In the case of CCAAUUCACUUAGGAGCUGTT against Psma4, the z-score is reported as active: -2.1. With GGUGCUCUCAGGAAAGUUGTT against Olfr1157 the z-score was inactive: 0.82. With GACAAUGCAAACUUUUGGGTT against Vmn1r231 the z-score was inactive: -1.51. In the case of GGUACACACGGACAAACGCTT against Esyt3, the z-score is reported as inactive: 0.294. In the case of “GGCCUAGAUAGAAUUCGUGTT against 6330403K07Rik”, the z-score is reported as inactive: -1.58. For GGAUGAAGAGAAAGUUCUATT against Mak, the z-score was active: 2.49. In the case of GGUGAUGAAGGAUUUGAUUTT against Cbll1, the z-score is reported as inactive: -0.0253. With GGGUCAUCAACUCUUACAATT against Gga3 the z-score was inactive: 0.943. In the case of GGAUGACUGUAAGUUACGGTT against Mast2, the z-score is reported as inactive: -0.229. In the case of GCUCUUCAGUUUAUAGUGUTT against Taar3, the z-score is reported as inactive: -0.995. In the case of GGUAAAAGCUGUUUGAGAGTT against Smim3, the z-score is reported as active: -3.43. In the case of GGCCAAAUAUUGAUCUUAATT against Rgs4, the z-score is reported as inactive: 0.735. With GGAAGAAAUACUACAGCCATT against Ptpn12 the z-score was inactive: -0.733. In the case of GGCGAGGAUGGUAUUGAGATT against Sema3f, the z-score is reported as inactive: 0.353. For GGGUGAGGGCAUUAGAGAUTT against E2f1, the z-score was inactive: 0.568. In the case of GGUGAUUUAGUUGUGUAAATT against Calcr, the z-score is reported as inactive: 0.294. With GGCCUUAGAAUUUGAUUCUTT against Slc30a8 the z-score was inactive: 0.814. For CGGCAUCCUAGACACCUUUTT against Rax, the z-score was inactive: 0.646. For GGCUUUCCUAUCAUGGUUUTT against Anp32e, the z-score was inactive: 1.06. With GGAUAUUCCGGAAGAUAUUTT against Mrpl13 the z-score was inactive: 1.17. In the case of GGCUGGUGGAUAAUGAUUGTT against Tmem50b, the z-score is reported as active: 2.18. In the case of GGGCCAGUUCCCAAUGAAATT against Gfm1, the z-score is reported as inactive: 0.125. For CCCUAACAUACUGGAGCUATT against Erfe, the z-score was active: 3.56. In the case of CGGUUUAACAGCAAGGGUATT against Sec61a1, the z-score is reported as active: -2.75. In the case of CGACCAAGUCAUUGUUAAGTT against Igf2bp1, the z-score is reported as inactive: 0.524. In the case of GCUUGUCUCACACAGCUCUTT against Olfr401, the z-score is reported as active: -3.11. For GGCAAAGCUGGUGAAAUACTT against Ksr1, the z-score was inactive: -0.556. In the case of CCUUCGAUGAAGUAUACAATT against Ipo4, the z-score is reported as inactive: 1.94. With “CCUAGAAAAGUCAUUGUCATT against 3010003L21Rik” the z-score was active: -2.08. With GGCUAACAUAUGAAUCACUTT against Exoc2 the z-score was inactive: -1.71. In the case of GGAUGACGACGAUUACAACTT against Nkx6-1, the z-score is reported as inactive: 1.1. In the case of GGAAAUGCAGAAGUUCUUUTT against Mmp7, the z-score is reported as inactive: -0.146. For CCAGCUUUGGGAAAUACCGTT against Sertad1, the z-score was active: -2.39. For GGAUCAUGAAUACGUUCAGTT against Tubb4a, the z-score was inactive: -1.43. In the case of GCGAACAGUUGAAUAGAUUTT against Slc25a46, the z-score is reported as inactive: -0.108. For “AGACUGGGUUGUGAAGAUATT against 4930563M21Rik”, the z-score was inactive: -1.68. With GAUGUUCUUCUUACACUCCTT against Olfr559 the z-score was inactive: -1.2. In the case of GGCAAAGUUUGACCAGUGUTT against Ndufa8, the z-score is reported as inactive: 1.26. With GCUUCAGAUUGGUGUGAUATT against Rec8 the z-score was inactive: 0.762. For GGAGCUGGAAGAGUGGUAUTT against Clta, the z-score was inactive: -0.535. With GCAUCUCAAAGUGUCACUATT against Ubxn10 the z-score was inactive: 0.56. In the case of GCCCUACCUUGAAUCCCAUTT against Olfr532, the z-score is reported as inactive: -1.75. For GGAGAGAGGAAUUCAACAGTT against Zfp317, the z-score was inactive: 0.734. With GGGCCUCCAAUUUGUGGCUTT against Cd1d1 the z-score was inactive: 0.176. With GGUGUGUGGUGUUAAAAAATT against Mybph the z-score was inactive: -0.81. With GGUGGAAAGCAAGAAACACTT against St8sia6 the z-score was inactive: -1.89. In the case of GGAAUAUGACUACAUGAAATT against Calu, the z-score is reported as inactive: -0.0124. In the case of GGGAUGGACAAGUUGUACUTT against Renbp, the z-score is reported as inactive: -0.101. In the case of CGUGGGCUCUCUAGAUGAATT against S100a13, the z-score is reported as inactive: 0.806. For GGAUACAAAUGAAAGCUUATT against Zfp354b, the z-score was inactive: -0.307. With CCAUGAGUAUCAAGUCAAUTT against Septin9 the z-score was inactive: 1.14. With GGGCUGUUCCAUUUCUUUATT against Atcay the z-score was inactive: 0.727. In the case of CGAGAUCUGACAUAGUGUCTT against Pdia6, the z-score is reported as inactive: -1.85. In the case of GGAUAACCUCGUCUUCAACTT against Wdr66, the z-score is reported as inactive: 0.433. In the case of GGGCCACACAUCAAACAGUTT against Fsip1, the z-score is reported as inactive: 0.165. For GAAGAGUAACGAAGAAUACTT against Olfr199, the z-score was inactive: -0.0929. With GGAUGUCAAGCUUUCCCAATT against Armh4 the z-score was inactive: 0.154. In the case of GGGAAGAAGCCCAAAUGCUTT against Pla2g2a, the z-score is reported as inactive: -0.878. For GCUAUGGAACAGUCUGUCCTT against Clec5a, the z-score was inactive: -0.522. In the case of “CGGAAGAAGUUAUUUAGAATT against 1700006J14Rik”, the z-score is reported as inactive: 0.87. With GGUUGUCGUCAUCCUGGAATT against Kcnj3 the z-score was inactive: -0.854. In the case of GGAAGGUAUAGACAACUAUTT against Syngr3, the z-score is reported as inactive: 1.72. With GCCGUUUUCCACCAAUGACTT against Ammecr1 the z-score was inactive: -0.5. With CGAAAUUGAUUCUAUCUGCTT against Katnal1 the z-score was inactive: -0.59. For GGUUUCUGCAUUGAUAAGATT against Olfr727, the z-score was inactive: -0.342. With CGCUUGACACUCACACUUUTT against Hoxa9 the z-score was inactive: 0.316. With GGUAGAUAUUGGAAUACCUTT against Vcp the z-score was inactive: -1.69. In the case of GGUAGCCAUAUCUAACAGCTT against Scd1, the z-score is reported as active: -2.02. In the case of GGAUGUAAAAUCCAUUGUUTT against Ica1l, the z-score is reported as inactive: -0.647.
